According to PubChem BioAssay AID1671190 (National Center for Advancing Translational Sciences (NCATS), 2021):
Among all 580,000 compounds or so, about 6,100 (1.1%) were called active. Inconclusive results, whose numbers are uncertain, are shown with a selection of clear calls. Calls follow the shape of the dose curve; as a rule, active = well fitted inhibition curve with a large enough effect; inconclusive = small, poorly fitted or top-dose-only effect, or another doubt; inactive = no such curve, though single readings can be large or run the other way. Potencies of inconclusive entries are doubtful fits and often do not repeat.

The chains behind the UniProt entries cited, without tags or fusion partners. Where a name states a change or a piece, a line headed by the entry shows the natural chain unless it says otherwise.
UniProt P18054: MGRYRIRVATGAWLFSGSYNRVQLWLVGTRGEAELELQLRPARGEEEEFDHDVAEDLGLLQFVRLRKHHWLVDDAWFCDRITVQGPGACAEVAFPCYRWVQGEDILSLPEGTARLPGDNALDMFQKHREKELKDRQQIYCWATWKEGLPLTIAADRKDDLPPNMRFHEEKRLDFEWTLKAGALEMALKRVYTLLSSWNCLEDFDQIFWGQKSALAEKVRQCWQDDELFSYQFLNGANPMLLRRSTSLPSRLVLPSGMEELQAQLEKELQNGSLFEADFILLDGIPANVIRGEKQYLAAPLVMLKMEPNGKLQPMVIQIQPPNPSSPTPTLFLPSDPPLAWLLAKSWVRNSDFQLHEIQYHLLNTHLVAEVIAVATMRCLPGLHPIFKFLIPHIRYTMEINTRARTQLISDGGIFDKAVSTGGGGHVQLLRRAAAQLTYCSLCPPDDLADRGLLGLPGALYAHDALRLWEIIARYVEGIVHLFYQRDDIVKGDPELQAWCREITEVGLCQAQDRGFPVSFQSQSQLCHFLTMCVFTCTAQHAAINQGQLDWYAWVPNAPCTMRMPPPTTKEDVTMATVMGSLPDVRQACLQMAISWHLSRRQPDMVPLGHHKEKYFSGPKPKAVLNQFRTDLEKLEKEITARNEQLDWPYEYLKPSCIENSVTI

target: Polyunsaturated fatty acid lipoxygenase ALOX12 (Homo sapiens) (UniProt P18054); test: Primary qHTS assay for inhibitors of human arachidonate 12S-lipoxygenase (ALOX12): Round 2; conditions: purified 12hLO, xylenol orange hydroperoxide absorbance; activity change, negative = inhibition: at 108 µM (top of the series) unless noted
Procedure, shortened: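 Purified human 12hLO at 150 nM in 25 mM Hepes, 0.01% Triton X-100, pH 7.0, preincubated 15 min at room temperature with compound. Reaction started with 40 uM arachidonic acid, 30 min at room temperature. Hydroperoxide measured by Fe-xylenol orange, 573/405 nm absorbance ratio.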
% is scaled to controls: 0 for no effect and ±100 for the full control effect; potency is read from the fitted curve at half-maximal effect.

| Compound | activity change, negative = inhibition | Potency |
| --- | --- | --- |
| OC[C@H]1O[C@@H](Oc2cc(O)cc(C=Cc3ccc(O)cc3)c2)[C@H](O)[C@@H](O)[C@H]1O | inactive: -24.4% [at 57.4 µM] |  |
| CC(C)(N)c1nnnn1-c1ccc2c(c1)OCO2 | inactive: 20.1% |  |
| COc1ccccc1N1CCN(CCN(C(=O)C2CCCCC2)c2ccccn2)CC1 |  | inconclusive: 13.7 µM [inhibitor, partial curve, poor fit] |
| COCCNC(=O)C(C)[C@@H]1CCc2c(C)cc(OCCOC)c(C)c2[C@@H]1O (some centres undefined) |  | inconclusive: 7.94 µM [inhibitor, full curve, poor fit] |
| Cc1onc(-c2ccccc2)c1C(=O)Nc1sccc1C#N | inactive: 9.03% |  |
| COc1ccccc1/C=C/C=N/NC(=O)c1cc(-c2ccco2)[nH]n1 |  | inconclusive: 39.8 µM [inhibitor, partial curve, poor fit] |
| Cc1ncc2c(c1CNC(=O)c1cccc(-c3ncc[nH]3)c1)CCNC2 |  | inconclusive: 3.98 µM [inhibitor, full curve, poor fit] |
| CC(C)c1nnc(NC(=O)C2CCN(C(=O)Nc3ccccc3)CC2)s1 |  | inconclusive: 79.4 µM [inhibitor, partial curve, poor fit] |
| Cc1nc(C/C(=N\Nc2ccccc2)c2ccc(O)cc2O)cs1 |  | inconclusive: 44.7 µM [inhibitor, partial curve, poor fit] |
| CC(C)c1cc(C(=O)OCC(=O)N2CCN(C(=O)c3ccco3)CC2)c(O)c(C(C)C)c1 |  | inconclusive: 89.1 µM [inhibitor, single point] |
| Cc1cc(C(=O)OCC(=O)NC(c2ccccc2)c2ccccc2)c2ccccc2n1 |  | inconclusive: 50.1 µM [inhibitor, single point] |
| CCCc1nc(C(=O)NC(CCn2cncn2)c2ccccc2)cs1 (centres undefined) | inactive: -17.2% |  |
| Cc1nc2cnccc2n1C | inactive: -0.635% |  |
| O[C@H]1C[C@H](c2ccc(Cl)cc2)N(CC2CCCCC2)C[C@@H]1n1cc(C2CC2)nn1 |  | inconclusive: 63.1 µM [inhibitor, partial curve, poor fit] |
| C=CCOc1ccc(/C=C(\C#N)C(=O)Nc2ccccn2)cc1 |  | inconclusive: 1.41 µM [inhibitor, full curve, poor fit] |
| Cc1oc(-c2ccc(Cl)cc2)nc1CS(=O)CC(=O)NCc1ccco1 (centres undefined) |  | inconclusive: 79.4 µM [inhibitor, partial curve, poor fit] |
| COc1cccc(NC(=O)CN(CCc2ccccc2)S(=O)(=O)c2ccc(Cl)cc2)c1 |  | inconclusive: 35.5 µM [inhibitor, single point] |
| CN1C(=O)Cc2cc(S(=O)(=O)N3CCOCC3)ccc21 | inactive: 0% |  |
| O=C(CN1C(=O)NC2(CCCCC2)C1=O)Oc1ccc2c(C(F)(F)F)cc(=O)oc2c1 |  | inconclusive: 79.4 µM [inhibitor, partial curve, poor fit] |
| O=C(COC(=O)c1ccc[nH]c1=O)NC1CC1 |  | inconclusive: 50.1 µM [inhibitor, partial curve, poor fit] |
| CC(C)c1ccc2oc(=O)cc(CN3CCN(CCO)CC3)c2c1 |  | inconclusive: 31.6 µM [inhibitor, partial curve] |
| O=c1[nH]c(CN2CCN(S(=O)(=O)/C=C/c3ccccc3)CC2)nc2ccccc12 | inactive: 0.663% |  |

| Compound | activity change, negative = inhibition | Potency |
| --- | --- | --- |
| O=S(=O)(NCc1nc2cccnc2n1Cc1ccccc1Cl)c1ccc2c(c1)CCCC2 | inactive: -8.18% |  |
| O=C(COCc1cc(-c2ccc(F)cc2)on1)Nc1cc(F)ccc1F | inactive: -13.7% |  |
| CN1CC(COCc2ccccc2)Oc2ccccc2S1(=O)=O (centres undefined) |  | inconclusive: 100 µM [inhibitor, partial curve, poor fit] |
| COC(=O)C1=C(C)N(Cc2ccc(C(F)(F)F)cc2)C(=NCc2ccccc2)NC1c1cccc(Cl)c1 (centres undefined) |  | inconclusive: 50.1 µM [inhibitor, partial curve, poor fit] |
| Cc1cccc(-c2nc3c4ccccc4nc(NCCc4ccccc4)n3n2)c1 | inactive: -3.17% |  |
| CCOc1cccc2cc(-c3nc(-c4ccc(F)cc4)no3)c(=O)oc12 |  | inconclusive: 31.6 µM [inhibitor, single point] |
| COC(=O)c1[nH]c2cccc(OC)c2c1NC(=O)CN1CCC(C(N)=O)(N2CCCCC2)CC1 | inactive: 6.72% |  |
| CCOc1ccc(NC(=O)Cn2nnc3c(cnn3-c3ccc(F)cc3)c2=O)cc1 |  | inconclusive: 0.158 µM [inhibitor, full curve, poor fit] |
| CCOc1ccccc1NS(=O)(=O)c1ccc2c(c1)oc(=O)n2C | inactive: -15.7% |  |
| O=C(CSc1nc2ccccc2o1)Nc1cc(C(F)(F)F)cc(C(F)(F)F)c1 |  | inconclusive: 44.7 µM [inhibitor, partial curve, poor fit] |
| C[C@@H](C(=O)NCCc1c[nH]c2ccccc12)[C@H]1C[C@]1(C)[C@H](NC(=O)OCc1ccccc1)c1ccccc1 |  | inconclusive: 44.7 µM [inhibitor, partial curve, poor fit] |
| c1coc(-c2nn3c(COc4ccc5c(c4)OCO5)nnc3s2)c1 | inactive: -28.3% |  |
| CCN1CCN(c2ccc(S(=O)(=O)N3CCCCC3)cc2NC(=O)c2ccc([N+](=O)[O-])s2)CC1 |  | inconclusive: 79.4 µM [inhibitor, partial curve, poor fit] |
| CN(Cc1cccnc1)c1ccc2ncc(Nc3ccc(C(F)(F)F)cc3)n2n1 |  | inconclusive: 50.1 µM [inhibitor, full curve, poor fit] |
| Cc1nnnn1/C(=C\c1ccccc1)C(=O)OCC(=O)Nc1cccc(S(=O)(=O)N(C)C)c1 | inactive: -29.5% |  |
| CCN(CC)CCCNC(=O)Cc1csc2nc(-c3ccc(Cl)cc3)cn12 |  | inconclusive: 39.8 µM [inhibitor, partial curve, poor fit] |
| Cc1cc(C)cc(NS(=O)(=O)c2c(C)[nH]c(C)c2C(=O)N2CCCC2)c1 |  | inconclusive: 89.1 µM [inhibitor, partial curve, poor fit] |
| C/C=C/Cn1c(SCc2ccccc2Cl)nc2c1c(=O)[nH]c(=O)n2C | inactive: -22.5% |  |
| Cc1cc(S(=O)(=O)Nc2ccc(C(F)(F)F)cc2)sc1C(=O)O | inactive: 44.7% |  |
| CC1(C)CC2CC(C)(CN2S(=O)(=O)c2cccc(C(=O)OCC(=O)NC(N)=O)c2)C1 (centres undefined) |  | inconclusive: 44.7 µM [inhibitor, partial curve, poor fit] |
| CC(C)c1ccc(NS(=O)(=O)c2ccc3c(c2)NC(=O)CO3)cc1 |  | inconclusive: 112 µM [inhibitor, partial curve, poor fit] |
| Cc1ccc2c(CSc3nnc(NC4CCCCC4)s3)cc(=O)oc2c1 |  | inconclusive: 39.8 µM [inhibitor, full curve, poor fit] |

| Compound | activity change, negative = inhibition | Potency |
| --- | --- | --- |
| CCNc1ncnc2c1CN(C1CCNC1)C(=O)CN2C (centres undefined) |  | inconclusive: 3.55 µM [inhibitor, full curve, poor fit] |
| O=C(Cn1nc2c(-c3nc(-c4cccc(F)c4)no3)cccn2c1=O)NCc1ccc(F)cc1 |  | inconclusive: 35.5 µM [inhibitor, partial curve] |
| O=C(CCC(=O)c1cccs1)NCCC(=O)Nc1ccc(F)c(Cl)c1 |  | active: 50.1 µM |
| O=C1[C@@H]2C[C@@H](O)CN2C2(CN(Cc3cccc(OC(F)(F)F)c3)C2)C(=O)N1Cc1cccc(Cl)c1 |  | inconclusive: 44.7 µM [inhibitor, full curve, poor fit] |
| O=C(CN1C(=O)CCn2nc(-c3ccccc3)cc21)NCc1ccc(Cl)cc1 |  | inconclusive: 100 µM [inhibitor, partial curve, poor fit] |
| O=C(CSc1nnc(COc2ccccc2)o1)Nc1nccs1 | inactive: 9.43% |  |
| COc1ccccc1N1CCN(C(=O)c2c(C)oc3ncn(C)c(=O)c23)CC1 |  | inconclusive: 39.8 µM [inhibitor, partial curve, poor fit] |
| COc1ccccc1C(=O)N1CCC2CC(=O)NCCC2C1 (centres undefined) |  | inconclusive: 28.2 µM [inhibitor, partial curve] |
| CCN(C(=O)Cn1cc(C(F)(F)F)ccc1=O)C1CCS(=O)(=O)C1 (centres undefined) |  | inconclusive: 126 µM [inhibitor, single point] |
| CSc1cccc(NC(=O)c2ccccc2SC)c1 |  | inconclusive: 44.7 µM [inhibitor, partial curve, poor fit] |
| COc1ccc(NC(=O)c2oc3ccccc3c2NC(=O)Cc2coc3c(C)c(C)ccc23)cc1 | inactive: 8.12% |  |
| COc1cc2c(cc1OC)CN(CCC(C)c1ccc(Cl)cc1)CC2 (centres undefined) |  | inconclusive: 112 µM [inhibitor, single point] |
| Cc1ccc2nc(-c3ccncc3)[nH]c2c1 | inactive: 9.66% |  |
| COC(=O)c1ccccc1NC(=S)NC(=O)C1CCCCC1 |  | inconclusive: 50.1 µM [inhibitor, partial curve, poor fit] |
| O=C1CCN(S(=O)(=O)c2ccccc2)CCCN(C(=O)C2CCOCC2)CCN1 |  | inconclusive: 14.1 µM [inhibitor, full curve, poor fit] |
| CCOCCn1nc(C)cc1C(=O)N[C@H]1[C@H]2CCO[C@H]2[C@@H]1N(C)C |  | inconclusive: 100 µM [inhibitor, partial curve, poor fit] |
| COCC(=O)NC[C@H]1CCN(Cc2sccc2C)C[C@H]1N(C)C | inactive: 75.6% |  |
| COc1ccc(-c2nc3cc(NC(=O)CSc4ccc(C)cc4)ccc3o2)cc1 |  | inconclusive: 89.1 µM [inhibitor, partial curve, poor fit] |
| O=C(COc1ccccc1)NNC(=S)NC(=O)c1ccccc1 |  | inconclusive: 44.7 µM [inhibitor, partial curve] |
| O=C(NCCN1CCN(C(=O)CCc2c[nH]c3ccccc23)CC1)c1ccco1 |  | inconclusive: 112 µM [inhibitor, partial curve, poor fit] |

A second format for 19 compounds above:
Compound	activity change, negative = inhibition	Potency
Cc1ccc2c(CSc3nnc(NC4CCCCC4)s3)cc(=O)oc2c1		inconclusive: 39.8 µM [inhibitor, full curve, poor fit]
CCNc1ncnc2c1CN(C1CCNC1)C(=O)CN2C (centres undefined)		inconclusive: 3.55 µM [inhibitor, full curve, poor fit]
O=C(Cn1nc2c(-c3nc(-c4cccc(F)c4)no3)cccn2c1=O)NCc1ccc(F)cc1		inconclusive: 35.5 µM [inhibitor, partial curve]
O=C(CCC(=O)c1cccs1)NCCC(=O)Nc1ccc(F)c(Cl)c1		active: 50.1 µM
O=C1[C@@H]2C[C@@H](O)CN2C2(CN(Cc3cccc(OC(F)(F)F)c3)C2)C(=O)N1Cc1cccc(Cl)c1		inconclusive: 44.7 µM [inhibitor, full curve, poor fit]
O=C(CN1C(=O)CCn2nc(-c3ccccc3)cc21)NCc1ccc(Cl)cc1		inconclusive: 100 µM [inhibitor, partial curve, poor fit]
O=C(CSc1nnc(COc2ccccc2)o1)Nc1nccs1	inactive: 9.43%	
COc1ccccc1N1CCN(C(=O)c2c(C)oc3ncn(C)c(=O)c23)CC1		inconclusive: 39.8 µM [inhibitor, partial curve, poor fit]
COc1ccccc1C(=O)N1CCC2CC(=O)NCCC2C1 (centres undefined)		inconclusive: 28.2 µM [inhibitor, partial curve]
CCN(C(=O)Cn1cc(C(F)(F)F)ccc1=O)C1CCS(=O)(=O)C1 (centres undefined)		inconclusive: 126 µM [inhibitor, single point]
CSc1cccc(NC(=O)c2ccccc2SC)c1		inconclusive: 44.7 µM [inhibitor, partial curve, poor fit]
COc1ccc(NC(=O)c2oc3ccccc3c2NC(=O)Cc2coc3c(C)c(C)ccc23)cc1	inactive: 8.12%	
COc1cc2c(cc1OC)CN(CCC(C)c1ccc(Cl)cc1)CC2 (centres undefined)		inconclusive: 112 µM [inhibitor, single point]
Cc1ccc2nc(-c3ccncc3)[nH]c2c1	inactive: 9.66%	
COC(=O)c1ccccc1NC(=S)NC(=O)C1CCCCC1		inconclusive: 50.1 µM [inhibitor, partial curve, poor fit]
O=C1CCN(S(=O)(=O)c2ccccc2)CCCN(C(=O)C2CCOCC2)CCN1		inconclusive: 14.1 µM [inhibitor, full curve, poor fit]
CCOCCn1nc(C)cc1C(=O)N[C@H]1[C@H]2CCO[C@H]2[C@@H]1N(C)C		inconclusive: 100 µM [inhibitor, partial curve, poor fit]
COCC(=O)NC[C@H]1CCN(Cc2sccc2C)C[C@H]1N(C)C	inactive: 75.6%	
COc1ccc(-c2nc3cc(NC(=O)CSc4ccc(C)cc4)ccc3o2)cc1		inconclusive: 89.1 µM [inhibitor, partial curve, poor fit]
